From PubChem BioAssay AID1259415 (National Center for Advancing Translational Sciences (NCATS), 2018)
The campaign covered roughly 410,000 compounds. About 18,000 (4.4%) were called active. Inconclusive results, whose numbers are uncertain, are shown with a selection of clear calls. Cut-off read from the data, not from the text of the source: active = activity change below about -60%; inconclusive = no clear call, values can overlap the other calls; inactive = above about -39%.

Assay: qHTS Assay for inhibitors of the human cytomegalovirus (HCMV)
Conditions: HFF cells, HCMV-luciferase reporter, 72 h; at 57.5 µM; hits give low values
In short: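 After 16 h attachment at 37C, HFF cells received test compound and HCMV-luciferase (1 PFU/cell); reporter luminescence read 72 h later, data normalized against buffer-only and known inhibitor Salinomycin.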
% is set by controls: 0 for no effect and ±100 for the full control effect.

Row | Compound | activity change, negative = inhibition
1 | CCn1c(CCNC(=O)c2ccc(OC)cc2)nnc1SCc1ccc(Cl)c(Cl)c1 | active: -60.3%
2 | Cc1ccc(NC(=O)c2nc[nH]c2C(=O)N[C@@H](C)c2ccccc2)cc1 | inconclusive: -53.3%
3 | CCCS(=O)(=O)c1c(S(=O)(=O)CCC)c2c(N)cccn2c1C(=O)c1ccc(Br)cc1 | inconclusive: -43.7%
4 | CCCCn1c(NC(=O)c2ccc(Br)o2)c(C(=O)OCC)c2nc3ccccc3nc21 | active: -71.1%
5 | Cn1c(SCC(=O)NC2CC2)nnc1C(F)(F)F | inconclusive: -41.8%
6 | CC(C)C[C@H](NC(=O)[C@@H](O)[C@H](N)Cc1ccccc1)C(=O)O | inconclusive: -48.1%
7 | Cc1cccc2cc(CN(CC3CCCO3)C(=S)Nc3ccccc3)c(=O)[nH]c12 (configuration not stated) | inconclusive: -44.7%
8 | COc1cccc(NC(=O)CSc2cc(C)c3ccccc3n2)c1 | inconclusive: -48%
9 | Cc1ccc(S(=O)(=O)C2(C(=O)Nc3nccs3)CC2)cc1 | active: -78.9%
10 | O=S(=O)(NN=C1CCCCCCC1)c1ccccc1 | inactive: 1.58%
11 | O=C(CS(=O)(=O)c1cn(Cc2ccc(Cl)cc2)c2ccccc12)N1CCOCC1 | inconclusive: -51.5%
12 | O=C(Nc1nc(-c2ccco2)cs1)c1ccccc1 | inactive: 31.8%
13 | CSc1ccccc1NC(=O)CN(C)CC(=O)Nc1cc(C)ccc1C | inactive: -21.6%
14 | CCOC(=O)c1nnn(-c2nonc2-n2cccc2)c1CN1CCC(C)CC1 | inconclusive: -43.8%
15 | CCN(CC)S(=O)(=O)c1ccc(C)c(NC(=O)/C=C/c2cccs2)c1 | inactive: -33.1%
16 | CC(=O)c1ccc(S(=O)(=O)N(C)CCCC(=O)N(C)Cc2c(F)cccc2Cl)cc1 | inconclusive: -52.2%
17 | COc1ccc(N2CCN(C(=O)CCNS(=O)(=O)c3ccc(Br)s3)CC2)cc1 | inconclusive: -44.9%
18 | CC(C)(C)c1cc(NC(=O)Nc2ccccc2OC(F)(F)F)no1 | inconclusive: -46.8%
19 | Cc1ccc(-c2nc3ccccc3c(=O)n2-c2cccc(C)n2)cc1 | active: -84.9%

Row | Compound | activity change, negative = inhibition
20 | Nc1nn(S(=O)(=O)c2cccc3nsnc23)cc1-c1ccc(Br)cc1 | inactive: -9.36%
21 | N=c1ccn(Cc2ccccc2Cl)cc1 | active: -85.2%
22 | COc1ccc(S[C@]2(c3nc(C)no3)CC(=O)N(C(=O)CCc3ccccc3)[C@@H]2c2ccc(OC)cc2)cc1 | inactive: 1.3%
23 | COc1cc(SC)ccc1C(=O)N1CCN(Cc2ccc3c(c2)OCO3)CC1 | inconclusive: -56.6%
24 | CC1=NNC(=O)/C1=C\c1cn(-c2ccccc2)nc1-c1ccc(Cl)cc1 | active: -102%
25 | COc1ccc(-c2csc(-c3cccnc3)n2)cc1C | active: -103%
26 | Cc1cc(S(=O)(=O)Nc2ccc3ccccc3c2)c(C)s1 | inconclusive: -41.8%
27 | O=C(COC(=O)C1=COCCO1)Nc1c(F)cccc1F | inconclusive: -43.7%
28 | CSc1ccc(NC(=O)Nc2cccn(Cc3ccccc3F)c2=O)cc1 | active: -81.2%
29 | Cc1ccccc1CS(=O)(=O)c1ccc(C(=O)N2CCOCC2)cc1[N+](=O)[O-] | inconclusive: -52.8%
30 | CNC(=O)COc1coc(CN2CCN(c3ccccc3F)CC2)cc1=O | inactive: 0%
31 | COc1ccc(CNC(=O)c2cc3c(=O)n(Cc4ccco4)ccc3nc2C)c(OC)c1 | inconclusive: -50.2%
32 | FC(F)(Cl)c1nnc2ccc(Cl)nn12 | inconclusive: -42.9%
33 | C=CCn1cc(C(=O)N2CCc3ccccc3C2)c(=O)c2cc(S(=O)(=O)N(CC)CC)ccc21 | active: -67.4%
34 | COc1cccc(-c2ocnc2C(=O)Nc2ccc3c(c2)CCC3)c1 | inconclusive: -50.6%
35 | CC(C)CNC(=S)N(Cc1ccco1)Cc1cc2cc3c(cc2[nH]c1=O)OCCO3 | inconclusive: -47.4%
36 | CCc1ccc2c(c1)NC(=O)C2(C)Cc1ccc(Cl)s1 (configuration not stated) | inconclusive: -60%
37 | Cc1ccccc1Cn1c2ccccc2c2cnn(CC(=O)NCc3cccc(Cl)c3)c(=O)c21 | active: -78.4%
38 | COc1ccc(-c2nc3ccccc3c(=O)n2-c2ccc(OC)cc2)cc1 | inconclusive: -58.2%

Arranged by heavy-atom count (largest number first): some entries from above.
Row | Compound | activity change, negative = inhibition
31 | COc1ccc(CNC(=O)c2cc3c(=O)n(Cc4ccco4)ccc3nc2C)c(OC)c1 | inconclusive: -50.2%
26 | Cc1cc(S(=O)(=O)Nc2ccc3ccccc3c2)c(C)s1 | inconclusive: -41.8%
32 | FC(F)(Cl)c1nnc2ccc(Cl)nn12 | inconclusive: -42.9%

(continued)

Row | Compound | activity change, negative = inhibition
39 | CCOC(=O)Cc1[nH]nc2c1C(c1cc(OC)ccc1OC)C(C#N)=C(N)O2 (configuration not stated) | inconclusive: -40.8%
40 | CSc1nc2ccc(C)cc2c(=O)n1-c1cccnc1 | active: -87.3%
41 | O=C(Nc1nnc(-c2ccccc2)o1)C1CCCN1S(=O)(=O)c1cccs1 (configuration not stated) | inconclusive: -40.5%
42 | COc1cccc(CNCCc2ccccc2)c1OC | inconclusive: -41.3%
43 | CCCCc1ccc(NC(=O)CSc2nnc(CNC(=O)c3ccco3)o2)cc1 | inactive: -14.5%
44 | Cc1ccc(CS(=O)(=O)Cc2ccc(C(=O)NCc3ccco3)o2)cc1 | inconclusive: -42.6%
45 | CCc1ccc(S(=O)(=O)NCCc2cn3ccsc3n2)cc1 | inconclusive: -53.3%
46 | Cc1ccc(-n2ccc(-c3nn(-c4ccccc4)ccc3=O)n2)cc1 | inconclusive: -48.8%
47 | Cc1ccc(S(=O)(=O)NC(=O)Nc2nccs2)cc1 | inconclusive: -45.4%
48 | Cc1ccc2c(c1)C(c1ccccc1)N(C(=O)COc1ccc(Cl)cc1Cl)CC(=O)N2 (configuration not stated) | inconclusive: -51.6%
49 | COc1ccccc1NS(=O)(=O)c1cc(NC(=O)CCC2CCCC2)ccc1N1CCOCC1 | active: -104%
50 | COc1cccc(C(=O)Nc2nc(-c3nnn(-c4ccccc4C(F)(F)F)c3C)ns2)c1 | active: -76%
51 | O=C(Nc1ccccc1)NC1CCCc2ccccc21 (configuration not stated) | inconclusive: -46.8%
52 | O=P(O)(c1ccccc1)c1ccccc1O | inactive: -20.6%
53 | Cc1cc(NCc2ccncc2)ccc1Br | inactive: -18.8%
54 | c1nc(N2CCCCC2)c2[nH]cnc2n1 | active: -70.8%
55 | CC1=CN2C(c3cccc([N+](=O)[O-])c3)=NON(c3ccc(C)cn3)C2C=C1 (configuration not stated) | inconclusive: -45.9%
56 | CCN(CC(=O)NCc1ccc(F)cc1)C(=O)c1cccc(S(=O)(=O)N(C)c2ccc(OC)cc2)c1 | inactive: -24.8%
57 | CC(=O)c1ccc(OC2OCCOC2Oc2ccc(C(C)=O)cc2)cc1 (configuration not stated) | inconclusive: -50%
